The text below walks through data of publication PMC11208467.

Amino acid sequences for entries named in this document (tags omitted).
UniProt P42224: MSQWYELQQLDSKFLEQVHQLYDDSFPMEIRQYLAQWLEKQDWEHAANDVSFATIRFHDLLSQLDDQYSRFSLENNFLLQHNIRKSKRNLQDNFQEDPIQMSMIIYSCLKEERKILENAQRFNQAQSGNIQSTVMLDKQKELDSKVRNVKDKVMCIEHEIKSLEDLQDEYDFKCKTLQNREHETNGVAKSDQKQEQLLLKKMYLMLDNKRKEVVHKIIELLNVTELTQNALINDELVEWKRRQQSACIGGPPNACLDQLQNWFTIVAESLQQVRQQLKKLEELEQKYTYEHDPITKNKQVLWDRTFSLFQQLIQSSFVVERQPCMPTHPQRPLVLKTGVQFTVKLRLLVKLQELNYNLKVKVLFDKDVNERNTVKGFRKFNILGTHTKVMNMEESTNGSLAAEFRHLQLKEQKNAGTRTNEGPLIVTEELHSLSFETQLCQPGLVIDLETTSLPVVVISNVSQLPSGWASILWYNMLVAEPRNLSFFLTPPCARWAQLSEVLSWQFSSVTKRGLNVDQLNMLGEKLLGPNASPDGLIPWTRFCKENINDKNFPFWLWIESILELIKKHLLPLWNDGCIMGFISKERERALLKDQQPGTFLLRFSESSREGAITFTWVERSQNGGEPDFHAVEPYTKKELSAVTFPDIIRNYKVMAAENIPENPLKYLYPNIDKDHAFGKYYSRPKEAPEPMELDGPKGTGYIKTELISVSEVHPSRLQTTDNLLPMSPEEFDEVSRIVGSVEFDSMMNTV

Results are given in words; binding and its absence hold for the method and conditions named. In cells and extracts the contact can be indirect. Some entries that bind do so weakly or less than the wild type.

For the experiment, the target named is Signal transducer and activator of transcription 1 (human (endogenous in BEAS 2b)) (UniProt P42224). In words: co-IP; BEAS 2b cells transfected with RSV-NS1 or EV for 24h, untreated (Figure 4D) or stimulated with 1000IU IFN-α for 30min (Figure 4E); lysed in HEPES lysis buffer (50 mM HEPES, 150 mM NaCl, 2 mM EDTA, 1% NP40, 0.5% sodium deoxycholate); immunoprecipitated with anti-STAT1 antibody and protein A/G agarose beads; immunoblotted for STAT1, RSV-NS1, KPNA1.

B1: Respiratory syncytial virus non-structural protein 1 (protein, UniProt P0DOE9 1-139)
chain: MGSNSLSMIKVRLQNLFDNDEVALLKITCYTDKLIHLTNALAKAVIHTIKLNGIVFVHVITSSDICPNNNIVVKSNFTTMPVLQNGGYIWEMMELTHCSQPNGLLDDNCEIKFSKKLSDSTMTNYMNQLSELLGFDLNP
Regarding B1, the binding entry was “binds”.
